Source: PubChem BioAssay AID1159599 (NIAID, 2016)

Purpose: 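Which TLR pathway genes are needed for LPS-driven Tnf promoter activity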
Cells: mouse RAW264.7 G9 macrophage reporter clone cells
Knock-down reagent: single siRNA against mouse genes
Time to read-out: 48 to 72 h after siRNA transfection, LPS for the last 16 h
Challenge: LPS (Salmonella minnesota R595), 16 h before fixation; dose not stated
Read-out: 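Nuclear mCherry from a Tnf promoter reporter imaged after LPS, background removed, robust z-score from per-plate median and MAD, averaged over replicates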
Scale: Tnf reporter z-score: higher = stronger Tnf promoter reporter signal after LPS
Hit rule: 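Called active if the mean z-score over replicates passes 1.5 in either direction, up or down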
Calls: active = strong change either way; inactive = little change
This is a random part of 756 reagents. 130 of them (17%) were called active. 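Calls are two-sided: actives include siRNAs that raised the Tnf reporter as well as ones that lowered it.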 Reagent sequences are not shown. Not stated in the record: the amount of reagent.

gene symbol | PubChem SID | Tnf reporter z-score, replicate mean | Call
Mapk14 (mitogen-activated protein kinase 14) | SID303071482 | 0.0571 | inactive
Mapk14 (mitogen-activated protein kinase 14) | SID303071483 | 0.85 | inactive
Mapk14 (mitogen-activated protein kinase 14) | SID303071484 | 0.27 | inactive
Mapk14 (mitogen-activated protein kinase 14) | SID303071485 | -0.341 | inactive
Mapk14 (mitogen-activated protein kinase 14) | SID303071486 | -0.438 | inactive
Mapk14 (mitogen-activated protein kinase 14) | SID303071487 | -0.334 | inactive
Pik3ca | SID303071644 | 0.242 | inactive
Pik3ca | SID303071645 | 1.18 | inactive
Pik3ca | SID303071646 | 0.0122 | inactive
Pik3ca | SID303071647 | -2.51 | active
Pik3ca | SID303071648 | -0.839 | inactive
Pik3ca | SID303071649 | 0.952 | inactive
Ets1 (Ets proto-oncogene 1, transcription factor) | SID303071734 | -0.451 | inactive
Ets1 (Ets proto-oncogene 1, transcription factor) | SID303071735 | 0.823 | inactive
Ets1 (Ets proto-oncogene 1, transcription factor) | SID303071736 | -0.418 | inactive
Ets1 (Ets proto-oncogene 1, transcription factor) | SID303071737 | 0.944 | inactive
Ets1 (Ets proto-oncogene 1, transcription factor) | SID303071738 | -1.74 | active
Ets1 (Ets proto-oncogene 1, transcription factor) | SID303071739 | -0.745 | inactive
Myd88 (myeloid differentiation primary response gene 88) | SID303071284 | -1.06 | inactive
Myd88 (myeloid differentiation primary response gene 88) | SID303071285 | -2.21 | active
Myd88 (myeloid differentiation primary response gene 88) | SID303071286 | -0.842 | inactive
Myd88 (myeloid differentiation primary response gene 88) | SID303071287 | -1.52 | active
Myd88 (myeloid differentiation primary response gene 88) | SID303071288 | -0.573 | inactive
Myd88 (myeloid differentiation primary response gene 88) | SID303071289 | 0.176 | inactive
Map3k8 (mitogen-activated protein kinase kinase kinase 8) | SID303071434 | -0.0213 | inactive
Map3k8 (mitogen-activated protein kinase kinase kinase 8) | SID303071435 | 0.804 | inactive
Map3k8 (mitogen-activated protein kinase kinase kinase 8) | SID303071436 | -1 | inactive
Map3k8 (mitogen-activated protein kinase kinase kinase 8) | SID303071437 | 0.543 | inactive
Map3k8 (mitogen-activated protein kinase kinase kinase 8) | SID303071438 | -0.0518 | inactive
Map3k8 (mitogen-activated protein kinase kinase kinase 8) | SID303071439 | -1.24 | inactive
Traf6 (TNF receptor-associated factor 6) | SID303071332 | -0.35 | inactive
Traf6 (TNF receptor-associated factor 6) | SID303071333 | -0.74 | inactive
Traf6 (TNF receptor-associated factor 6) | SID303071334 | -1.33 | inactive
Traf6 (TNF receptor-associated factor 6) | SID303071335 | 0.187 | inactive
Traf6 (TNF receptor-associated factor 6) | SID303071336 | -0.418 | inactive
Traf6 (TNF receptor-associated factor 6) | SID303071337 | -0.834 | inactive
Sp1 (trans-acting transcription factor 1) | SID303071752 | -1.23 | inactive
Sp1 (trans-acting transcription factor 1) | SID303071753 | -1.32 | inactive
Sp1 (trans-acting transcription factor 1) | SID303071754 | -1.79 | active
Sp1 (trans-acting transcription factor 1) | SID303071755 | -0.753 | inactive
Sp1 (trans-acting transcription factor 1) | SID303071756 | 0.023 | inactive
Sp1 (trans-acting transcription factor 1) | SID303071757 | -1.93 | active
Ccl3 (C-C motif chemokine ligand 3) | SID303071854 | -0.497 | inactive
Ccl3 (C-C motif chemokine ligand 3) | SID303071855 | -0.371 | inactive
Ccl3 (C-C motif chemokine ligand 3) | SID303071856 | -1.67 | active
Ccl3 (C-C motif chemokine ligand 3) | SID303071857 | -0.858 | inactive
Ccl3 (C-C motif chemokine ligand 3) | SID303071858 | -0.202 | inactive
Ccl3 (C-C motif chemokine ligand 3) | SID303071859 | -0.849 | inactive
Map2k6 (mitogen-activated protein kinase kinase 6) | SID303071476 | -0.454 | inactive
Map2k6 (mitogen-activated protein kinase kinase 6) | SID303071477 | 0.0323 | inactive
Map2k6 (mitogen-activated protein kinase kinase 6) | SID303071478 | -0.469 | inactive
Map2k6 (mitogen-activated protein kinase kinase 6) | SID303071479 | 1.66 | active
Map2k6 (mitogen-activated protein kinase kinase 6) | SID303071480 | -0.93 | inactive
Map2k6 (mitogen-activated protein kinase kinase 6) | SID303071481 | 0.911 | inactive
Pik3cd | SID303071656 | -0.62 | inactive
Pik3cd | SID303071657 | -1.27 | inactive
Pik3cd | SID303071658 | -0.685 | inactive
Pik3cd | SID303071659 | -0.164 | inactive
Pik3cd | SID303071660 | -1.45 | inactive
Pik3cd | SID303071661 | -1.07 | inactive
Irak4 (interleukin-1 receptor-associated kinase 4) | SID303071308 | 0.692 | inactive
Irak4 (interleukin-1 receptor-associated kinase 4) | SID303071309 | -1.61 | active
Irak4 (interleukin-1 receptor-associated kinase 4) | SID303071310 | -1.44 | inactive
Irak4 (interleukin-1 receptor-associated kinase 4) | SID303071311 | -1.39 | inactive
Irak4 (interleukin-1 receptor-associated kinase 4) | SID303071312 | -1.33 | inactive
Irak4 (interleukin-1 receptor-associated kinase 4) | SID303071313 | -1.09 | inactive
Tlr2 (toll-like receptor 2) | SID303071200 | 0.103 | inactive
Tlr2 (toll-like receptor 2) | SID303071201 | -0.346 | inactive
Tlr2 (toll-like receptor 2) | SID303071202 | 1.38 | inactive
Tlr2 (toll-like receptor 2) | SID303071203 | 0.924 | inactive
Tlr2 (toll-like receptor 2) | SID303071204 | -1.05 | inactive
Tlr2 (toll-like receptor 2) | SID303071205 | 0.0604 | inactive

Entries listed so far whose target name begins with C or c:
gene symbol | PubChem SID | Tnf reporter z-score, replicate mean | Call
Ccl3 (C-C motif chemokine ligand 3) | SID303071854 | -0.497 | inactive
Ccl3 (C-C motif chemokine ligand 3) | SID303071855 | -0.371 | inactive
Ccl3 (C-C motif chemokine ligand 3) | SID303071856 | -1.67 | active
Ccl3 (C-C motif chemokine ligand 3) | SID303071857 | -0.858 | inactive
Ccl3 (C-C motif chemokine ligand 3) | SID303071858 | -0.202 | inactive
Ccl3 (C-C motif chemokine ligand 3) | SID303071859 | -0.849 | inactive

The results go on.
gene symbol | PubChem SID | Tnf reporter z-score, replicate mean | Call
Ptpn6 (protein tyrosine phosphatase, non-receptor type 6) | SID303071902 | 0.681 | inactive
Ptpn6 (protein tyrosine phosphatase, non-receptor type 6) | SID303071903 | 0.157 | inactive
Ptpn6 (protein tyrosine phosphatase, non-receptor type 6) | SID303071904 | -0.238 | inactive
Ptpn6 (protein tyrosine phosphatase, non-receptor type 6) | SID303071905 | -0.694 | inactive
Ptpn6 (protein tyrosine phosphatase, non-receptor type 6) | SID303071906 | -1.87 | active
Ptpn6 (protein tyrosine phosphatase, non-receptor type 6) | SID303071907 | -2.15 | active
Tab2 (TGF-beta activated kinase 1/MAP3K7 binding protein 2) | SID303071356 | -0.124 | inactive
Tab2 (TGF-beta activated kinase 1/MAP3K7 binding protein 2) | SID303071357 | 0.0308 | inactive
Tab2 (TGF-beta activated kinase 1/MAP3K7 binding protein 2) | SID303071358 | -0.518 | inactive
Tab2 (TGF-beta activated kinase 1/MAP3K7 binding protein 2) | SID303071359 | 0.244 | inactive
Tab2 (TGF-beta activated kinase 1/MAP3K7 binding protein 2) | SID303071360 | -1.06 | inactive
Tab2 (TGF-beta activated kinase 1/MAP3K7 binding protein 2) | SID303071361 | -1.16 | inactive
Il1rl1 (interleukin 1 receptor-like 1) | SID303071890 | 1.91 | active
Il1rl1 (interleukin 1 receptor-like 1) | SID303071891 | -1.36 | inactive
Il1rl1 (interleukin 1 receptor-like 1) | SID303071892 | -0.273 | inactive
Il1rl1 (interleukin 1 receptor-like 1) | SID303071893 | 1.02 | inactive
Il1rl1 (interleukin 1 receptor-like 1) | SID303071894 | -1.7 | active
Il1rl1 (interleukin 1 receptor-like 1) | SID303071895 | 0.0207 | inactive
Ripk3 (receptor-interacting serine-threonine kinase 3) | SID303071944 | -0.404 | inactive
Ripk3 (receptor-interacting serine-threonine kinase 3) | SID303071945 | 0.206 | inactive
Ripk3 (receptor-interacting serine-threonine kinase 3) | SID303071946 | 0.11 | inactive
Ripk3 (receptor-interacting serine-threonine kinase 3) | SID303071947 | -0.145 | inactive
Ripk3 (receptor-interacting serine-threonine kinase 3) | SID303071948 | 0.977 | inactive
Ripk3 (receptor-interacting serine-threonine kinase 3) | SID303071949 | -1.86 | active
Irf5 (interferon regulatory factor 5) | SID303071698 | -0.806 | inactive
Irf5 (interferon regulatory factor 5) | SID303071699 | -0.219 | inactive
Irf5 (interferon regulatory factor 5) | SID303071700 | 0.045 | inactive
Irf5 (interferon regulatory factor 5) | SID303071701 | -1.24 | inactive
Irf5 (interferon regulatory factor 5) | SID303071702 | -0.502 | inactive
Irf5 (interferon regulatory factor 5) | SID303071703 | -0.128 | inactive
Ube2v1 (ubiquitin-conjugating enzyme E2 variant 1) | SID303071320 | -0.432 | inactive
Ube2v1 (ubiquitin-conjugating enzyme E2 variant 1) | SID303071321 | -0.0181 | inactive
Ube2v1 (ubiquitin-conjugating enzyme E2 variant 1) | SID303071322 | 0.139 | inactive
Ube2v1 (ubiquitin-conjugating enzyme E2 variant 1) | SID303071323 | -0.494 | inactive
Ube2v1 (ubiquitin-conjugating enzyme E2 variant 1) | SID303071324 | 2.33 | active
Ube2v1 (ubiquitin-conjugating enzyme E2 variant 1) | SID303071325 | -1.98 | active
Pik3cg | SID303071662 | 2.31 | active
Pik3cg | SID303071663 | -1.75 | active
Pik3cg | SID303071664 | 0.623 | inactive
Pik3cg | SID303071665 | 0.522 | inactive
Pik3cg | SID303071666 | -0.648 | inactive
Pik3cg | SID303071667 | -1.97 | active
